In publication PMC7007292 (Oncotarget, 2020):
Where two headings read alike, the source gives them in different places.

Legend:
ACP-02 cells = assay: Growth inhibition assay (resazurin); assay type: cell-based; details: Homo sapiens, 2D culture, 72 h, value (± SD)
ACP-03 cells = assay: Growth inhibition assay (resazurin); assay type: cell-based; details: Homo sapiens, 2D culture, 72 h, value (± SD)
AGP-01 cells [1] = assay: Growth inhibition assay (resazurin); details: 2D culture, 72 h, value (± SD)
AGP-01 cells [2] = details: human
[3] = test system: GC cell lines (AGP-01, ACP-02, ACP-03); assay: Growth inhibition assay, all GC cell lines; assay type: cell-based; details: human
Method: All cell lines were cultured in Dulbecco’s Modified Eagle Medium, high Glucose (4.5 g/L), with Sodium Pyruvate and L-glutamin] (DMEM, Lonza, UK), containing 10% foetal bovine serum (FBS) (Invitrogen, USA), 1% antibiotic with 100 IU/ml Penicillin and 100 ug/ml Streptomycin (Invitrogen, USA). The culture medium was changed 2 to 3 times a week and cells were passaged using trypsin/EDTA (Invitrogen, USA).
. Resarzurin was used for growth inhibition assays. Briefly, cells (300/well) were plated in 384-well flat-bottomed plates and cultured for 24 h. […] All the following in vitro experiments were performed on metastatic AGP-01 cells. For further validation of the biomarkers found in in vitro studies, expression analysis were performed on patient tumor samples from all GC histological types.

Row | Structure (SMILES) | IC50 (ACP-02 cells) [nM] | IC50 (ACP-03 cells) [nM] | IC50 (AGP-01 cells [1]) [nM] | IC50 (AGP-01 cells [2]) [nM] | IC50 [3] [nM]
1 | CNC(=O)c1ccccc1Sc1ccc2c(/C=C/c3ccccn3)n[nH]c2c1 [Axitinib] | > 20000 | > 20000 | > 20000 | – | –
2 | CN[C@@H]1C[C@H]2O[C@@](C)([C@@H]1OC)n1c3ccccc3c3c4c(c5c6ccccc6n2c5c31)C(=O)NC4 [Staurosporin] | – | 10 | – | 0.00613 | < 15
